The text below walks through data of article PMC7819943, “Rice protein-binding microarrays: a tool to detect cis-acting elements near promoter regions in rice”.

Protein sequences, listed by entry. Tags and fused reporters are not part of them.
UniProt Q0JBA9, entry or part of it: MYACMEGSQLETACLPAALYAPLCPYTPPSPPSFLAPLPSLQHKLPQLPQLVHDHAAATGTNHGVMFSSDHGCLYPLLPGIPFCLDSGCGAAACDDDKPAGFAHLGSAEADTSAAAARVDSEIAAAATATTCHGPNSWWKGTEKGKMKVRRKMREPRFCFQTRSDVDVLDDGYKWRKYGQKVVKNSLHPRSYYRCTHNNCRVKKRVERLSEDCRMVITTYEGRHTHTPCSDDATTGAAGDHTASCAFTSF

This is one part of the list.

For the test, the target named is OsWRKY34 (Oryza sativa, UniProt Q0JBA9 1-250). Nature of the test: protein-binding microarray (RPBM); PBS, 2% BSA, 51.3 ng/ul salmon testes DNA, 50 uM zinc acetate, 200 nM TF, 25 C, 1 h; high values mean tight binding. The conditions noted are these: protein: recombinant; tags: N-terminal polyhistidine and DsRed monomer fusion (pET32a); label: CyDye5-dUTP incorporated in the synthesized complementary strand; 3' TTTTT single-stranded linker to array surface; dsDNA, one strand shown. Put shortly:
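In PBS with 2% BSA, salmon testes DNA and 50 µM zinc acetate, 200 nM protein was incubated on a custom Agilent array at 25 °C for 1 h and then washed off. The array had been made double-stranded by primer extension with Cy5-dUTP and blocked with 2% BSA. The proteins were transcription factors fused N-terminally to polyhistidine and DsRed, expressed in E. coli BL21-CodonPlus and purified on Ni–NTA. The binding signal is per-feature fluorescence intensity (arbitrary units) from an Axon 4000B scanner.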
“ATTTATGTGCATATGATACTTTTTTTTACTTGTTCATCATCGGAGTCACCTAGTGCAG”: the binding signal is 8700 fluorescence intensity (a.u.).

With “CAGTTCAATCAAACGGTCATTCCCGTGTTTTCCTGCGTTTCGGAGTCACCTAGTGCAG”, the binding signal was 11200 fluorescence intensity (a.u.).

In the case of “GGGGCAAGGAAGGAAGGGGAGGGGAGGGGTTGGGGCGATGCGGAGTCACCTAGTGCAG”, the binding signal is 25900 fluorescence intensity (a.u.).

“TTCAGTTAAAAGTGTTGTTGATGTTTTCCTTTCTGAAAGACGGAGTCACCTAGTGCAG”: the binding signal was 8540 fluorescence intensity (a.u.).

Regarding “TAGTCGCCCACGGCCCCACGCGCCCACACACATTACGCAGCGGAGTCACCTAGTGCAG”, the binding signal was 8550 fluorescence intensity (a.u.).

For “CTCACCACTCAGCATAATCTGCAACAGCTTTATGAGTTGTCGGAGTCACCTAGTGCAG”, the binding signal was 8320 fluorescence intensity (a.u.).

As for “ATTTTTTTTCTCACTTTCATCACTTAGTTTTGGCTTTAGACGGAGTCACCTAGTGCAG”, the binding signal is 8810 fluorescence intensity (a.u.).

For the sequence “AAATTTGTACTGTGCAAACCAGCTTTGTCTATCTTCCTCACGGAGTCACCTAGTGCAG”, the binding signal was 9890 fluorescence intensity (a.u.).

Regarding “CCACTGTCAGTCTCTTCCGCCTCCTTTTTATTTCCTCTGTCGGAGTCACCTAGTGCAG”, the binding signal is 10800 fluorescence intensity (a.u.).

As for “AAACAATTATCTAAAAACCTCACTATTAATAGAGAGATTCCGGAGTCACCTAGTGCAG”, the binding signal was 38700 fluorescence intensity (a.u.).

Turning to “TCAAATTGGTACAACAGCGACCTTCACAGAACTTGGGAAACGGAGTCACCTAGTGCAG”, the binding signal is 9150 fluorescence intensity (a.u.).

“ACTAAAGTGTAGGTTTCGTCTCTGCTCTTCTGCTTTTGTACGGAGTCACCTAGTGCAG”: the binding signal is 8790 fluorescence intensity (a.u.).

As for “CTCCGGTTCGCTCCCACGCCCGCCACCGCCACCACCCGCCCGGAGTCACCTAGTGCAG”, the binding signal is 10100 fluorescence intensity (a.u.).

As for “TACCACAGTGCTGAACACTCTCTTCCTATTACCTCTCTCACGGAGTCACCTAGTGCAG”, the binding signal was 8370 fluorescence intensity (a.u.).

As for “ATGCTTATTTTATTTATGAATTGTATAGGTTCTCTTGGGCCGGAGTCACCTAGTGCAG”, the binding signal was 8250 fluorescence intensity (a.u.).

Consider “GTACTATACTTAGCAATTGTATGCTCTACTCTTCACTTCTCGGAGTCACCTAGTGCAG”, for which the binding signal was 12900 fluorescence intensity (a.u.).

“AAAAAAAAGAGCGATTCCTTTGCGCGCCTCGCGATTCGTCCGGAGTCACCTAGTGCAG”: the binding signal is 10300 fluorescence intensity (a.u.).

Turning to “AAATATTTTTTTCACCCGTTATAACACACGAGTTTTTTCGCGGAGTCACCTAGTGCAG”, the binding signal is 8450 fluorescence intensity (a.u.).

For the sequence “ACCTCTCATACAATACCCTATATAATACCATATGTCCTATCGGAGTCACCTAGTGCAG”, the binding signal was 8170 fluorescence intensity (a.u.).

With “ATATATATGTTCGATCACTCCCACACAATTCTCCAAACCACGGAGTCACCTAGTGCAG”, the binding signal was 8280 fluorescence intensity (a.u.).

Take “CTTTTAATTACTCCGATTTCGTAGCGCATATCGACTCTCCCGGAGTCACCTAGTGCAG”: the binding signal is 8510 fluorescence intensity (a.u.).

“TCTCTCTCCTTCCTGTGTGGCAGTGGGTCCCATTTCTGACCGGAGTCACCTAGTGCAG”: the binding signal was 8820 fluorescence intensity (a.u.).

For “GGCTTAACCTGTGCGTGTGTGTGGTCTATTTAACCAATGTCGGAGTCACCTAGTGCAG”, the binding signal is 8700 fluorescence intensity (a.u.).

With “TGGGCTTTTTTCTTTTGTTTGAATGGAGGGAGTACGCAGTCGGAGTCACCTAGTGCAG”, the binding signal was 11000 fluorescence intensity (a.u.).

Take “CTCCCTGTCTGTGCACGGGCCCTACACCGTTGCAACACGCCGGAGTCACCTAGTGCAG”: the binding signal was 11300 fluorescence intensity (a.u.).

On to “AGTCAAGCTCCTCTTCTATTATGTCTTCGTCAATACTATTCGGAGTCACCTAGTGCAG”, for which the binding signal is 9750 fluorescence intensity (a.u.).

Regarding “TGTCTTCTGTTGTTCTTCCTCTACATCTACATCTCTCGGGCGGAGTCACCTAGTGCAG”, the binding signal is 9920 fluorescence intensity (a.u.).

For “TGTGCCTGCCGACTCGCCCACGCAACTCCGACTCTTTCCTCGGAGTCACCTAGTGCAG”, the binding signal was 13500 fluorescence intensity (a.u.).

As for “ATCATGGCCAATCCACACTTGTTGTTGTTCTTTCCCTTCGCGGAGTCACCTAGTGCAG”, the binding signal was 8600 fluorescence intensity (a.u.).

As to “AACTCTTTTTAGGCTGCGTTCGTTCTAGATACATTGAGTTCGGAGTCACCTAGTGCAG”, the binding signal was 9260 fluorescence intensity (a.u.).

Take “CCTCTCGATCTCGCCTCCGCCGTCCGCCGCCGCCGCCGCCCGGAGTCACCTAGTGCAG”: the binding signal is 14400 fluorescence intensity (a.u.).

As for “AGGACACCTTAGCATTCAGCCATCTTATTTCTCTGTATTACGGAGTCACCTAGTGCAG”, the binding signal was 9420 fluorescence intensity (a.u.).

As for “TTGCTATATATTATACTCCTTCACTTTTCATCCACTCTCCCGGAGTCACCTAGTGCAG”, the binding signal was 8270 fluorescence intensity (a.u.).

On to “CCGCAGCTCCGCAACCTCGACCGCTTCGACTCCAACATCACGGAGTCACCTAGTGCAG”, for which the binding signal is 8240 fluorescence intensity (a.u.).

Turning to “ATCTCTTTTGCATTTGTTCGTCCCTTTCGTTTTCAACTTGCGGAGTCACCTAGTGCAG”, the binding signal is 9290 fluorescence intensity (a.u.).

On to “GGGTGGGGTGGGCCTGGGCTGATGCATGTTTGGCGCTTAGCGGAGTCACCTAGTGCAG”, for which the binding signal is 21200 fluorescence intensity (a.u.).

Take “AGACTGGTTTTTTATTGGTTGGTCAACAAAGCCATTCCTTCGGAGTCACCTAGTGCAG”: the binding signal is 9110 fluorescence intensity (a.u.).

For “CGCATCATCCGCCTAATAACCATGAACTCGGAGGGAGGGACGGAGTCACCTAGTGCAG”, the binding signal is 8510 fluorescence intensity (a.u.).

“ACGGATTTAACACTCACTATTTATGACATGTGTACCATCACGGAGTCACCTAGTGCAG”: the binding signal was 9100 fluorescence intensity (a.u.).

In the case of “CCTCAGTTCCCGGCCACATCCGTCGGCATCTTCTTCCTTCCGGAGTCACCTAGTGCAG”, the binding signal is 9560 fluorescence intensity (a.u.).

On to “ACTTCCGATCCCACCACCCACATGCGCCGCCTACCCACCTCGGAGTCACCTAGTGCAG”, for which the binding signal was 9140 fluorescence intensity (a.u.).

On to “ATGCCCGTCGCTTTCAGTTCGCGTGCCCGCTTCACGTATCCGGAGTCACCTAGTGCAG”, for which the binding signal is 9740 fluorescence intensity (a.u.).
